Assay results: the supplement of paper PMC10849652
This is one part of the list.

By UniProt entry, the sequences of proteins in these tests, tags left out. Where a name states a change or a piece, a line headed by the entry shows the natural chain unless it says otherwise.
UniProt P20340: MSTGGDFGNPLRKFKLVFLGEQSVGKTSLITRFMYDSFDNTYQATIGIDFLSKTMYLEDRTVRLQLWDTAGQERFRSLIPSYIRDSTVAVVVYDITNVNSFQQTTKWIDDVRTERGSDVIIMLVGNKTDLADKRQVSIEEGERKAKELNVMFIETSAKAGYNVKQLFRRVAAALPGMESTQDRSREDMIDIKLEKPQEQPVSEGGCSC
UniProt O60216: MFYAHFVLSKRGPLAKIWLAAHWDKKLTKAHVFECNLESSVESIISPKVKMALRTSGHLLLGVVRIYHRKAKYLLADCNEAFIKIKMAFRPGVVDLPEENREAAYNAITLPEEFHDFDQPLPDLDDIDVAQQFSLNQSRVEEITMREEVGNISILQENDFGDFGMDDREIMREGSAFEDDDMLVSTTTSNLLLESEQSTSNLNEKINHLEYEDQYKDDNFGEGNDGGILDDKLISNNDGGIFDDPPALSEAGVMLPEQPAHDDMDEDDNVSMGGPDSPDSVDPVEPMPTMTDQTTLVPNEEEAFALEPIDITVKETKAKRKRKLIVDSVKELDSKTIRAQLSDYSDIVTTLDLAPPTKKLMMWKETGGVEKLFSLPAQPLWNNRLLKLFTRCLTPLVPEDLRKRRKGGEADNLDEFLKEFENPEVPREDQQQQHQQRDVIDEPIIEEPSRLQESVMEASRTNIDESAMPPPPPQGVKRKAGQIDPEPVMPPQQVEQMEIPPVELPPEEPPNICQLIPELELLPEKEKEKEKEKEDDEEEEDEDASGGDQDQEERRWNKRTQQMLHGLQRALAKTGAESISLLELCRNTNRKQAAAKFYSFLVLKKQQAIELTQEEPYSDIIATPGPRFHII
UniProt Q96I23: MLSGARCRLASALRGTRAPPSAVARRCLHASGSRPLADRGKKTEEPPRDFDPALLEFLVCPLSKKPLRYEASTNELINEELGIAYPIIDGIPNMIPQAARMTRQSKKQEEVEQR
UniProt Q7Z6M1: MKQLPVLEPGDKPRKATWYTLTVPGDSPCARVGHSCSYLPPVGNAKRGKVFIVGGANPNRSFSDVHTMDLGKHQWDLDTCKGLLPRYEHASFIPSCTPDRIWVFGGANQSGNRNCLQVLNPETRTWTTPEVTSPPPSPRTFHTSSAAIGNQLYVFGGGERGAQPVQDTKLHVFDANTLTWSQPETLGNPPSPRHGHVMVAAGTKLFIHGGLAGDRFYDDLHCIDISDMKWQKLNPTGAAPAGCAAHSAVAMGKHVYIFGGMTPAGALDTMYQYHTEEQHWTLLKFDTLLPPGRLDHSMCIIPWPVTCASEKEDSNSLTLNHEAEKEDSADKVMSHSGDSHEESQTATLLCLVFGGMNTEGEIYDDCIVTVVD
UniProt Q6WKZ4: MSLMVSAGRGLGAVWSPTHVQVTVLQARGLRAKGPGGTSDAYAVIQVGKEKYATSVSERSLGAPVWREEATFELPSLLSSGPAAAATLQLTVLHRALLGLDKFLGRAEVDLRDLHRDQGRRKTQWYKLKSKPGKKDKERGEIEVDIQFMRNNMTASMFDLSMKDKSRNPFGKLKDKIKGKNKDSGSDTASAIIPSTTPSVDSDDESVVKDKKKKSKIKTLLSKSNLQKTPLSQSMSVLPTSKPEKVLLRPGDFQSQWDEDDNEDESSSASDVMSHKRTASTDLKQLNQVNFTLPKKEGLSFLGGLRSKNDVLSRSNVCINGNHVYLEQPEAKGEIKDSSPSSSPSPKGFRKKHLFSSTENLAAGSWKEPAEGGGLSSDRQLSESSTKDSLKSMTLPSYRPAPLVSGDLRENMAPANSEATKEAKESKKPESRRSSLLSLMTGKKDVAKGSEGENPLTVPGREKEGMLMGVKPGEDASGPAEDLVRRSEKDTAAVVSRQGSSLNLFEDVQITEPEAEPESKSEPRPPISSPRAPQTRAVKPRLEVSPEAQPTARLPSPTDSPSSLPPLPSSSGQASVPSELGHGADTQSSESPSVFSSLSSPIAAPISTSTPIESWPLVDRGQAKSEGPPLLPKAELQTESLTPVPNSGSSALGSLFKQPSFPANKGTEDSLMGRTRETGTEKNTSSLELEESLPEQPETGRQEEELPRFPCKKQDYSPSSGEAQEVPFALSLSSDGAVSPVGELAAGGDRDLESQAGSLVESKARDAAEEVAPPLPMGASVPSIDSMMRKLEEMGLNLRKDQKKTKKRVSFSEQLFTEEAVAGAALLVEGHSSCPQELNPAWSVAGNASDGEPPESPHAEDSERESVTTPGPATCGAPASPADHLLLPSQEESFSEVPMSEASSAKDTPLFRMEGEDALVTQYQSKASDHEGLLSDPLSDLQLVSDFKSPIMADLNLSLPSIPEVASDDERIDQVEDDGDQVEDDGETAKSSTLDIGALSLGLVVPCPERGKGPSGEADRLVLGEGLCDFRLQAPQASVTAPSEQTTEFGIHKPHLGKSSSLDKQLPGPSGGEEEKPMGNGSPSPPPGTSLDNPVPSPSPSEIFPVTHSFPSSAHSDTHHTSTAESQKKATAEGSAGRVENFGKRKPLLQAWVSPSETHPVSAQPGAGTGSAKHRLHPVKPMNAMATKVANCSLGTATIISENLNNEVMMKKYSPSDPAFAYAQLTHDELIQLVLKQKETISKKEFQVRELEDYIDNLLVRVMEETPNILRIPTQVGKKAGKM
UniProt Q9UI14, whole entry, looked up: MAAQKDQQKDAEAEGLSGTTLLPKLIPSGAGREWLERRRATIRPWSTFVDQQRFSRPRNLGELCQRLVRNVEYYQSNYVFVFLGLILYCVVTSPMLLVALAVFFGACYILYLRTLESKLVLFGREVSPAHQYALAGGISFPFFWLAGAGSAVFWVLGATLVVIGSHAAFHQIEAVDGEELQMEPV
UniProt P49023, whole entry, looked up: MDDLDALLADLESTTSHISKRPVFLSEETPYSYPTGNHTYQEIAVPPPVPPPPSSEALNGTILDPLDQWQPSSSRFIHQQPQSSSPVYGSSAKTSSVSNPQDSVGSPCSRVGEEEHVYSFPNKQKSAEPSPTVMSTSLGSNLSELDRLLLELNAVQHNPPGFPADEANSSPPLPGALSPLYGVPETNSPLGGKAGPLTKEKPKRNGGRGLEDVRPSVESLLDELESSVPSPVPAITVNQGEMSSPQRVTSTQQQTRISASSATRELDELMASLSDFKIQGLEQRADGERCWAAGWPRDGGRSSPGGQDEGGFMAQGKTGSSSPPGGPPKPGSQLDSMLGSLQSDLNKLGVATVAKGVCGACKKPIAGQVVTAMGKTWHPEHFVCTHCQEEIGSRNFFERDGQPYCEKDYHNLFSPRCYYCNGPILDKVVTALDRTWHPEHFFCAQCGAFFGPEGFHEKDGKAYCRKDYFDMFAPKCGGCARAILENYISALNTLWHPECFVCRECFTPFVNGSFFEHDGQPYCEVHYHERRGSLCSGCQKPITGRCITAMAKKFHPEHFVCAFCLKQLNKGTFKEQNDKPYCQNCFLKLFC

Columns and labels:
Assay in all cases: log2 fold change, soluble protein after heating vs DMSO (PISA); higher = thermal stabilisation; K562 lysate, 10 uM; active = over 0.2 and 3.5 SD of the protein, either way, in both replicates (recomputed)
[1] = compound: C1=CC=C(C=C1)[C@H](COC2=CC3=C(C=C2)NC(=O)N3)NC(=O)C4=CC=CN(C4=O)CC5=CC(=C(C=C5)F)F
In short: (§1)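 Thermal stability, expressed as log-two fold change relative to solvent controls, is given from duplicates. Crude K562 extract in PBS pH 7.4 with 1 mM MgCl2, at 1 mg/mL protein, was treated with 10 μM compound for 30 min and heated in aliquots for 3 min across 48°C-58°C. After pooling, adjustment to 0.5% NP-40 at 4°C and centrifugation at 21,000xg for 90 min, supernatant protein was measured by TMTpro 16plex LC-MS/MS with channel sums equalised.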

[2] = compound: CC1=C(SC2=C1C(=N[C@H](C3=NN=C(N32)C)CC(=O)N)C4=CC=C(C=C4)Cl)C
In short: as §1

[3] = compound: CC1=C2C(=CC=C1)N=C(N(C2=O)C3=CC=CC=C3C)CN4C=NC5=C(N=CN=C54)N
In short: as §1

[4] = compound: Cc1sc2c(c1C)C(c1ccc(Cl)cc1)=N[C@@H](CC(=O)OC(C)(C)C)c1nnc(C)n1-2
In short: as §1

[5] = compound: c1ccc([C@@H]2C[C@H]2NC2CCNCC2)cc1
In short: as §1

Measured: log2 fold change

RAB6A isoform 4 (UniProt P20340)
inactive: [1] -0.024 | [2] 0.005 | [3] -0.031 | [4] -0.048 | [5] 0.004

RAD21 (UniProt O60216)
inactive: [1] 0.013 | [2] 0.024 | [3] -0.004 | [4] 0.02 | [5] -0.03

RAB28 (UniProt P51157)
inactive: [1] 0.007 | [2] 0.017 | [3] 0.02 | [4] -0.02 | [5] 0.02

PYURF (UniProt Q96I23)
inactive: [1] 0.03 | [2] 0.048 | [3] 0.126 | [4] 0.007 | [5] -0.091

RABEPK (UniProt Q7Z6M1)
inactive: [1] -0.032 | [2] 0.054 | [3] 0.026 | [4] 0.017 | [5] -0.071

PYCR1 (UniProt J3QKT4)
inactive: [1] 0.134 | [2] 0.146 | [3] 0.01 | [4] -0.152

RAB11FIP1 (UniProt Q6WKZ4)
inactive: [1] 0.051 | [2] 0.023 | [3] 0.049 | [4] -0.011 | [5] 0.017

RACK1 (UniProt D6RF23)
inactive: [1] 0.188 | [2] 0.218 | [3] -0.021

RABAC1 (UniProt Q9UI14)
inactive: [1] -0.019 | [2] 0.05 | [3] 0.049 | [4] -0.018

PXN isoform 3 (UniProt P49023)
inactive: [1] 0.117 | [2] -0.06 | [3] -0.029 | [4] 0.068 | [5] -0.054
